Test results reported in patent US20110027186A1.
No constants are given. Whether binding was seen depends on the method and setting. In cells and extracts the contact can be indirect. Some binding calls cover weakened binding; strength is not graded here.

The chains behind the UniProt entries cited, without tags or fusion partners. Residues count along the entry.
UniProt Q9GZV5: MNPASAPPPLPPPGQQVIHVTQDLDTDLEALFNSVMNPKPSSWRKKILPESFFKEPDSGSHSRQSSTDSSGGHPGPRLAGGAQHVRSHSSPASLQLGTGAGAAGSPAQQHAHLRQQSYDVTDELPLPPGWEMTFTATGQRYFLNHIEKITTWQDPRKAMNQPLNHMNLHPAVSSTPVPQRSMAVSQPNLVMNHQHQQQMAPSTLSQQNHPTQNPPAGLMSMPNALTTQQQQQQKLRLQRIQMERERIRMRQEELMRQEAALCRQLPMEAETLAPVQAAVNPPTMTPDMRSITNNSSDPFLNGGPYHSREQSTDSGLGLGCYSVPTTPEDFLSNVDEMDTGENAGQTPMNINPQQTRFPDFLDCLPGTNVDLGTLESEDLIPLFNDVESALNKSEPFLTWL
UniProt P28347, residues 16-426: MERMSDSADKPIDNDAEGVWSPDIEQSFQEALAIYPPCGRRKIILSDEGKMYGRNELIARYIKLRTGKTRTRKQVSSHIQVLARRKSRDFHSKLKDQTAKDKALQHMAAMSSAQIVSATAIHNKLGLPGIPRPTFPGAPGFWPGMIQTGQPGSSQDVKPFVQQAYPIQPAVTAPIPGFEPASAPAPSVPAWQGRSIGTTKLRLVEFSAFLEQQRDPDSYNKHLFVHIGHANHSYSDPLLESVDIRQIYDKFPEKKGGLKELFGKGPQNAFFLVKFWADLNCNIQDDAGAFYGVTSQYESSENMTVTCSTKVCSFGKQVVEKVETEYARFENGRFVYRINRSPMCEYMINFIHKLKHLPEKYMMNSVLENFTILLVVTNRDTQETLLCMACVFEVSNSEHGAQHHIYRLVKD
UniProt Q15562: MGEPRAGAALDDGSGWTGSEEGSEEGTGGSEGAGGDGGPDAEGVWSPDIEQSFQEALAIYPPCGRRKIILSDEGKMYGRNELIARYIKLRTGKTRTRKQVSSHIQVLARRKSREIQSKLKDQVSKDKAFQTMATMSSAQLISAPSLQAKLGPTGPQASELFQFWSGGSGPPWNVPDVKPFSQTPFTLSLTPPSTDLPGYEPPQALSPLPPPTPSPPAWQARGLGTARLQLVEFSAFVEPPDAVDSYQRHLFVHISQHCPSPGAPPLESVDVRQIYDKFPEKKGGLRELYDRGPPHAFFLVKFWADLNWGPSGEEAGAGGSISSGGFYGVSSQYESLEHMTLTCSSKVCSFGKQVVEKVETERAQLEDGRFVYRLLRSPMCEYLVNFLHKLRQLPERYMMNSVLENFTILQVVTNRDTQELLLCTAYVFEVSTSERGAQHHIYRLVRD

What was measured:
[1] = molecular target: TAZ (Transcriptional Coactivator with PDZ-Binding Motif), endogenous protein in human breast cancer cell lysates (human) (UniProt Q9GZV5); assay: co-immunoprecipitation with anti-HA from Hs578T lysates, immunoblot
[2] = molecular target: TAZ (Transcriptional Coactivator with PDZ-Binding Motif), endogenous protein in human breast cancer cell lysates (human) (UniProt Q9GZV5); assay: co-immunoprecipitation, figure legend of FIG. 8B

binding [1] | binding [2] | Substance
binds | binds | HA-TEAD1 (from UniProt P28347 16-426)
binds | binds | HA-TEAD2 (from UniProt Q15562 1-447)
